# Primary screen of a compound library

A: 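Growth of Mycobacterium tuberculosis over 4 days (cholesterol / DPPC medium with tyloxapol); the read-out is not stated. Compounds at 50 µM. The record gives no direction; compounds that gave an IC50 in retests scored well above the rest, so higher reads as more growth inhibition. Of about 69,000 compounds tested this way, about 370 (0.54%) reached 50% or more in at least one test.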
B: 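Growth of Mycobacterium tuberculosis over 3 days (7H9 medium with glucose and tyloxapol); the read-out is not stated. Compounds at 50 µM. The record gives no direction; compounds that gave an IC50 in retests scored well above the rest, so higher reads as more growth inhibition. Of about 69,000 compounds tested this way, about 760 (1.1%) reached 50% or more in at least one test.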

Each number is a percent effect as filed.
The controls that fix the scale are not given in the record; negative values are as filed.
Compounds were drawn at random from those tested, without regard to their results.
Two or more numbers in one place are separate tests of the same structure; such repeats can differ widely.

SMILES	A	B
CCC1CCc2c(c3ccccc3[nH]c2=O)O1 (stereo not drawn)	24.89%	10.38% & 16.39%
CCc1nc(CC2CN(c3ncnc4sc(C)c(C)c34)CCO2)no1 (stereo not drawn)	5.255%	1.349%
CCCNC(=O)CCC(=O)Nc1ccc(-n2cncn2)c(F)c1	-21.32%	-57.91%
OCC1(Cc2ccc(F)cc2F)CCCN(Cc2ccncc2)C1 (stereo not drawn)	5.879%	-2.98% & 2.632%
CCN1C(=O)CCCC12CCCN(C(=O)c1ccncc1F)C2.O=C(O)C(F)(F)F (stereo not drawn)	23.66%	10.99%
Cc1ccc(CNC2(Cc3cc(-c4ccccc4)on3)COC2)o1	-0.4539%	17.83% & 3.951%
Cc1c[nH]c(CN2CCCCC2CCc2cccc(O)c2)c(C)c1=O (stereo not drawn)	10.86%	-3.832% & 7.296%
CCOCC1CN(C(=O)N2CCCC2)Cc2cnn(C)c21 (stereo not drawn)	6.552%	-28.62%
CNc1cncc(C2CCN(C(=O)c3coc(C)n3)CC2)n1	-13.83% & 0.3447%	-0.7007%
Cc1csc(N2CCCN(C(=O)Cn3cncn3)CC2)n1	-1.426%	-45.84% & -8.329%
CCc1cc(N2CCCC(CC)(C(=O)O)C2)nc(N2CCOCC2)n1 (stereo not drawn)	-23.33%	-17.37%
CC(Cn1ccnc1)NC(=O)NCc1ccc2c(c1)OCCO2 (stereo not drawn)	-3.297%	1.345%
Cc1ccc2c(c1)C(=O)NCC1(CCN(C(=O)c3cc(C)no3)CC1)O2	2.648%	-6.615%
Cc1ccc(C)c(C(=O)Nc2ccc(OC3CCN(C)CC3)cc2)c1	5.412% & -1.998%	8.809%
[H][C@]12CCCCN1CCC[C@H]2CN(C)Cc1cnn(C(C)C)c1	2.875%	4.847% & -4.36%
CN(C)c1ncc(-c2cc(C(=O)NCCC#N)n(CC3CC3)c2)cn1.O=C(O)C(F)(F)F	26.96%	25.09%
Cn1cnnc1C1CCCN(C(=O)c2ccc3c(c2)OCCO3)C1 (stereo not drawn)	1.763%	-14.36%
Cc1nc2cc(C(=O)N(CCN(C)C)CCN(C)C)ccc2n1C	-9.826%	9.626%
COc1cccc(CN2CCC3(CCN(c4ncc(C)cn4)C3)C2=O)c1 (stereo not drawn)	26.82%	27.92% & 0.8295%
Cc1cc(CNC(=O)[C@H]2CCCCN2C(=O)OC(C)(C)C)on1	-22.44%	4.997%
Cc1ccc(OCCC(=O)N2CCOCC2c2ncon2)cc1C (stereo not drawn)	-7.592%	7.265%
Cc1ccc(CC(=O)N(CC2CN(C)CCO2)c2nccs2)cn1 (stereo not drawn)	-28.08%	-11.39% & -17.01%
Cc1cc(-n2cncn2)ccc1C(=O)N(C)CC(F)(F)C(F)(F)F	-6.572%	-1.356%
CCn1ccnc1CN1CCCN(C(=O)c2csc(C)n2)CC1	6.39%	6.187%
CC(C)OCCN1CCN(c2ccc(CN(C)C)cn2)CC1	-20.97%	-1.309%
COc1ccc(S(=O)(=O)N2CCN(C)c3ncccc3C2)cc1.O=C(O)C(F)(F)F	-14.54%	13.96%
CCc1nc(Nc2cccc(C(=O)NC)c2)c2c(n1)c(C)nn2CC	8.051%	20.3%
O=C(c1ccc(-c2ccoc2)nc1)N1CCCN(C2CCCCC2)CC1	-19.15%	-1.598% & -33.39%
Cc1nc(C)n(C2CCCN(C(=O)c3ccn(C(C)C)n3)C2)n1 (stereo not drawn)	-14.9%	4.175%
Fc1cccc(OC2CCN(CCn3cc4ccccc4n3)CC2)c1	48.85%	60.47%
Cc1cccc(C2(CNC(=O)C(C)NC(N)=O)CCCC2)c1 (stereo not drawn)	6.799%	14.71%
[H][C@@]12CCN(Cc3cccc(C)n3)C[C@@]1([H])O[C@@H](C)C2	-9.905%	5.912%
Cc1ccc(Cl)c2c1C1(NC(=O)c3cccnc3N1)C(=O)N2 (stereo not drawn)	-11.96%	-34.02%
N#Cc1ncn(Cc2c(F)cccc2Cl)n1	-1.163%	12.75%
CCc1nnc2n1CCN(C(=O)c1ccccc1OCC1CC1)C2	-17.61%	-8.248% & -1.124%
COc1cc(C(=O)NCCc2ccc(OC)c(OC)c2)on1	7.531%	-0.3902% & 2.002%
O=C(c1ccc(-c2cc[nH]n2)cc1)N1CC[C@H](CO)[C@H](O)C1	-11.78%	9.086%
Cc1ccc2c(c1)CN(C(=O)c1ccccc1F)C(CN(C)C)CO2.Cl (stereo not drawn)	-22.39%	-36.54%
CN(C)C(=O)C1CCCN1CCCNC(=O)c1ccccc1Cl (stereo not drawn)	12.98%	30.26%
NCCN1CCC(c2nnc(Cn3ccnc3)n2C2CC2)CC1	-13.57% & -18.97%	-24.91%
N#Cc1cc(F)ccc1NCc1ccc(Cn2cncn2)cc1	6.273%	5.898% & 6.895%
COc1ccc(CNCc2ccnc(N3CCOCC3)c2)c(OC)c1	3.439%	14.2%
[H][C@]12CCN(C(=O)c3cccc(C)c3)C[C@@]1([H])OCCN(c1ncccn1)C2	14.31% & -2.047%	-3.986%
Cc1ccc(CNC(=O)CN(CCC(N)=O)c2ccc(F)cc2)cc1	18.59%	28.55%
COc1cccc(CCNC(=O)NC(C)C)c1O	10.9%	5.93% & -4.35%
CS(=O)(=O)CC1(CNc2c(C#N)cnc3ccc(Cl)cc23)CC1	16.21%	15.67%
CCc1ncncc1C(=O)NCCNS(=O)(=O)c1ccccc1	-29.59%	-25.65%
Cc1nc(N2CCOCC2)nc2c1COCC21CCN(CC(C)C)C1 (stereo not drawn)	0.7647% & 15.77%	12.96% & 1.296%
O=C(COCc1ccccc1)NCc1ccc(O)c(F)c1	9.157%	14.74%
O=C(NCC1(Sc2ccccc2)CC1)c1cc[nH]n1	1.734%	18.76%
[H][C@@]12CS(=O)(=O)C[C@]1([H])N(C(=O)c1ccc(OC)o1)CCN2C(=O)CC	-11.39%	14.84%
FC(F)(F)c1ccc(CNC[C@H]2COCc3nc4cccnc4n32)cc1	8.828%	3.698% & 22.3%
Cc1nc(C)n(CC(=O)N2CCCC(c3nc(C)n4c(C)csc34)C2)n1 (stereo not drawn)	15.32%	12.57%
Cc1ccc2c(c1)C(NCc1ccccn1)CC2 (stereo not drawn)	1.241%	17.32% & 19.91%
CS(=O)(=O)NCCC(=O)N1CCN(S(=O)(=O)c2ccc(Br)cc2)CC1	-2.662%	0.05867%
CS(=O)(=O)N1CCOCC12CCN(c1nncs1)CC2	-20.05%	-14.92%
COC1COC2(CCN(Cc3ccc(Cl)cc3)CC2)C1.O=C(O)C(F)(F)F (stereo not drawn)	-20.96%	0.5489%
CCCc1noc(-c2ccc(-n3ncc(C(=O)O)c3C)nc2)n1	-25.86%	-2.608% & -3.214%
CN1CCN(CCNC(=O)C(OC2CCCC2)c2ccccc2)CC1 (stereo not drawn)	6.565%	29.74%
CC(C)[C@@H]1CN(C(=O)CN(C)Cc2ccccc2)C[C@H]1C(=O)O	2.483%	-2.11% & -0.04777%
CCOc1ccc(Cl)c(C(=O)N2CCCC(c3ccn[nH]3)C2)n1 (stereo not drawn)	15.06%	11.2%
COc1ccc(CC(C)(O)CNC(=O)Cc2cccs2)cc1 (stereo not drawn)	-14.03%	-0.6598%
COC(CNC(=O)NCc1c(C)cc(C)[nH]c1=O)c1ccccc1 (stereo not drawn)	-5.323%	24.22%
CCC1CCCN(C(=O)Cc2csc(-c3ncccn3)n2)C1 (stereo not drawn)	-5.568%	-24.14%
O=C(c1ccco1)N1CCC2(CCC(=O)N2Cc2ccncc2)CC1	-19.18%	1.042%
Cc1noc(C)c1CN(C)C(=O)c1ccc(NC2CC2)nc1	-4.392%	16.03%
CC(C)Nc1cc(N2CCC(n3cc(C4CCCC4)nn3)CC2)ncn1	4.776% & 3.761%	29.61%
O=C(CCc1cc(Br)cs1)NCCCn1ccnc1	-1.523%	7.719%
CC(C)CN1CCN(C(=O)Nc2cc(C(F)(F)F)c[nH]c2=O)CC1	-3.767%	-0.8452%
COC(=O)N1CCCCC1C(=O)N(C)Cc1cc(-c2cccnc2)no1 (stereo not drawn)	0.3527%	10.08%
CSCCC(=O)N1CCC(Oc2cc(C)ccc2F)(C(=O)O)CC1	-1.829%	-5.348% & -15.62%
CC(C(=O)N1CCC(c2[nH]ncc2-c2ccccc2)CC1)n1cncn1 (stereo not drawn)	1.518%	6.857%
CCC(C(=O)NC1CCCCC1)n1cccc(OC)c1=O (stereo not drawn)	-8.066%	-4.607%
CCN1CC(C(=O)NCc2ccnc(-n3cccn3)c2)CC1=O (stereo not drawn)	-13.66%	-36.01%
Cc1nccc(CC2COCCN(c3cnccn3)C2)n1 (stereo not drawn)	-13.06%	-25.94%
c1ccc(-c2nc(CN3CCCC3Cn3cncn3)cs2)cc1 (stereo not drawn)	4.968%	18.74%
CC(C)C(=O)NCCNC(=O)CCOc1cccc(F)c1	-4.441%	-13.5%

Data taken from ChEMBL document CHEMBL3988442, “University of Dundee, Small-Polar-MMV Screening Library” (2021).